In US9132134B2, “Methods for treating GI tract disorders” (Neurogastrx, Inc., priority 2012, dated 2015) one finds Ki data, which are given here for one compound.

By UniProt entry, the sequences of proteins in these tests, tags left out.
UniProt P35462, whole entry: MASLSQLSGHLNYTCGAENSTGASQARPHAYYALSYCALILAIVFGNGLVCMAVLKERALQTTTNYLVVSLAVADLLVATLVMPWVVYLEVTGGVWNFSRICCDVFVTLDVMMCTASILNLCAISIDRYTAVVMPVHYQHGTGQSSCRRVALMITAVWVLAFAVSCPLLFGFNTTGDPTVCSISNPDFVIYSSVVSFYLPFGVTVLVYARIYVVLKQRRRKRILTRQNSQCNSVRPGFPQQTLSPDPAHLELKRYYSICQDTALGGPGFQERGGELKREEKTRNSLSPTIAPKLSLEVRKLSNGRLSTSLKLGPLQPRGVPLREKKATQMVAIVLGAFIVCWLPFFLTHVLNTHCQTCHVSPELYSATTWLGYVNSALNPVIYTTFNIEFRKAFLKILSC

In this assay the target is D3 (Homo sapiens (Human), UniProt P35462). In words: Radioligand binding affinity, D3.

The Ki is a measure of affinity in units of concentration, obtained from inhibition or displacement. A lower Ki goes with higher affinity. As to `O=c1[nH]c2ccccc2n1CCCN1CCC(n2c(=O)[nH]c3cc(Cl)ccc32)CC1` [Domperidone], the affinity, expressed as Ki, was 7.5 nM. This counts as single-digit nanomolar.
